PubChem BioAssay AID1259405, NCATS, 2018

Purpose: 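Knock-downs that lift recombinant protein yield in hamster ovary cells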 (primary screen)
Cell system: Chinese hamster CHO-K1 ovary cells with stable secreted eGFP expression
Knock-down reagent: single siRNA against mouse genes, 0.8 pmol siRNA per well (2 µl of 400 nM stock)
Timing: 3 days
Measurement: 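Percent of the per-plate non-targeting control median for intracellular GFP per well by laser scanning cytometry and for cell viability by ATP luminescence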
Reading the numbers: GFP, % of control: higher = more GFP per well, higher productivity; viability (ATP), % of control: higher = more viable cells (more ATP)
Hit rule: 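a knock-down is called active if GFP reaches 120% or more of non-targeting control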
Shown is a random part of about 50,000 reagents tested. In the full data, about 4,000 (8%) got an active call. 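Mouse siRNA library applied to hamster cells; one well for each siRNA.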 Reagents against one gene are numbered here.

{"target gene": "Ube2d1 (GeneID 216080)", "reagent no.": 1, "GFP, % of control": 47, "viability (ATP), % of control": 44, "activity call": "inactive"}
{"target gene": "Ube2d1 (GeneID 216080)", "reagent no.": 2, "GFP, % of control": 78.2, "viability (ATP), % of control": 66.4, "activity call": "inactive"}
{"target gene": "Ube2d1 (GeneID 216080)", "reagent no.": 3, "GFP, % of control": 86.9, "viability (ATP), % of control": 138, "activity call": "inactive"}
{"target gene": "Or5b24 (GeneID 258300)", "reagent no.": 1, "GFP, % of control": 82.2, "viability (ATP), % of control": 85.3, "activity call": "inactive"}
{"target gene": "Or5b24 (GeneID 258300)", "reagent no.": 2, "GFP, % of control": 69.5, "viability (ATP), % of control": 86, "activity call": "inactive"}
{"target gene": "Or5b24 (GeneID 258300)", "reagent no.": 3, "GFP, % of control": 76.2, "viability (ATP), % of control": 55.2, "activity call": "inactive"}
{"target gene": "Mybl1 (GeneID 17864)", "reagent no.": 1, "GFP, % of control": 39.1, "viability (ATP), % of control": 43.8, "activity call": "inactive"}
{"target gene": "Mybl1 (GeneID 17864)", "reagent no.": 2, "GFP, % of control": 63.8, "viability (ATP), % of control": 63.7, "activity call": "inactive"}
{"target gene": "Mybl1 (GeneID 17864)", "reagent no.": 3, "GFP, % of control": 78, "viability (ATP), % of control": 85.7, "activity call": "inactive"}
{"target gene": "Kcnn4 (GeneID 16534)", "reagent no.": 1, "GFP, % of control": 98.6, "viability (ATP), % of control": 91.5, "activity call": "inactive"}
{"target gene": "Kcnn4 (GeneID 16534)", "reagent no.": 2, "GFP, % of control": 71.6, "viability (ATP), % of control": 62.8, "activity call": "inactive"}
{"target gene": "Kcnn4 (GeneID 16534)", "reagent no.": 3, "GFP, % of control": 82.9, "viability (ATP), % of control": 86.8, "activity call": "inactive"}

Next part; the last 2 above are carried over.
{"target gene": "Kcnn4 (GeneID 16534)", "reagent no.": 2, "GFP, % of control": 71.6, "viability (ATP), % of control": 62.8, "activity call": "inactive"}
{"target gene": "Kcnn4 (GeneID 16534)", "reagent no.": 3, "GFP, % of control": 82.9, "viability (ATP), % of control": 86.8, "activity call": "inactive"}
{"target gene": "Samd8 (GeneID 67630)", "reagent no.": 1, "GFP, % of control": 76.9, "viability (ATP), % of control": 71.4, "activity call": "inactive"}
{"target gene": "Samd8 (GeneID 67630)", "reagent no.": 2, "GFP, % of control": 73.6, "viability (ATP), % of control": 54.9, "activity call": "inactive"}
{"target gene": "Samd8 (GeneID 67630)", "reagent no.": 3, "GFP, % of control": 87.8, "viability (ATP), % of control": 92, "activity call": "inactive"}
{"target gene": "Chit1 (GeneID 71884)", "reagent no.": 1, "GFP, % of control": 89.3, "viability (ATP), % of control": 97.1, "activity call": "inactive"}
{"target gene": "Chit1 (GeneID 71884)", "reagent no.": 2, "GFP, % of control": 73.5, "viability (ATP), % of control": 77.4, "activity call": "inactive"}
{"target gene": "Chit1 (GeneID 71884)", "reagent no.": 3, "GFP, % of control": 77.1, "viability (ATP), % of control": 75.7, "activity call": "inactive"}
